This experiment concerns the target C-Raf (rat (endogenous in A7r5)) (UniProt P11345). Put plainly: co-IP; endogenous proteins of A7r5 lysates in IP lysis buffer (50 mmol/L NaCl, 10% glycerol, 1% Nonidet-P40, 10 mmol/L sodium phosphate, pH 8.0); anti-IQGAP1, anti-KSR1, anti-B-Raf or anti-C-Raf cross-linked to Protein G dynabeads, or anti-ERK1/2 cross-linked to protein A agarose, 4°C over night; western blot and densitometry; for the ERK1/2, IQGAP1 and KSR1 IPs cells were unstimulated or stimulated 5 min with DPBA or FCS. (A western blot detects proteins with antibodies after separation by electrophoresis.)

These are yes or no findings as the source states them, for the method shown. In cells and extracts the contact can be indirect. Some entries that bind do so weakly or less than the wild type.

B1: caveolin-1 (protein, UniProt P41350 1-178)
chain: MSGGKYVDSEGHLYTVPIREQGNIYKPNNKAMADEVNEKQVYDAHTKEIDLVNRDPKHLNDDVVKIDFEDVIAEPEGTHSFDGIWKASFTTFTVTKYWFYRLLSTIFGIPMALIWGIYFAILSFLHIWAVVPCIKSFLIEIQCISRVYSIYVHTFCDPLFEAIGKIFSNIRISTQEEI
Consider B1, for which the binding entry was “binds weakly”.

Source of the values: paper PMC3846746.
